Measurements reported in article doi:10.1101/210898.
Results are given in words; binding and its absence hold for the method and conditions named. In cells and extracts the contact can be indirect. Some entries that bind do so weakly or less than the wild type.

Sequences of proteins named here, by UniProt entry; tags and fusion partners are left off. A change or cut given only in a name is not applied to a line headed by its entry. Residues count along the entry.
UniProt P28066, 188-241: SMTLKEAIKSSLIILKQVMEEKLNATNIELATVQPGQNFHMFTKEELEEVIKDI
UniProt P28066, whole entry: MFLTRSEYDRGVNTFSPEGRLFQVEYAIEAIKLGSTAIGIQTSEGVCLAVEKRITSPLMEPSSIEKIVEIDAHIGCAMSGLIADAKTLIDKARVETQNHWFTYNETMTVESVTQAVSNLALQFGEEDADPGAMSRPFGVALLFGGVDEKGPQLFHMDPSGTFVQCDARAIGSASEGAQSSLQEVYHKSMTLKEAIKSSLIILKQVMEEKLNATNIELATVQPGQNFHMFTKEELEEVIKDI
UniProt P25788, 187-255: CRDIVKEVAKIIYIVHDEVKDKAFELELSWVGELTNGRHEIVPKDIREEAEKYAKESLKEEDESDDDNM
UniProt P25788, whole entry: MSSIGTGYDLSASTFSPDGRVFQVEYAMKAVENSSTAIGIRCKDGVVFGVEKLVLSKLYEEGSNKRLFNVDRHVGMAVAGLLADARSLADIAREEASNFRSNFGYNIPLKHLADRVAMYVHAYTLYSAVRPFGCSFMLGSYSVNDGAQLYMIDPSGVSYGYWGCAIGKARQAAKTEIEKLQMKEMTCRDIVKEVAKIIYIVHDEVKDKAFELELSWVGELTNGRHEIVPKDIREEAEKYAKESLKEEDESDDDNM
UniProt P25788, 1-229, stated change not applied: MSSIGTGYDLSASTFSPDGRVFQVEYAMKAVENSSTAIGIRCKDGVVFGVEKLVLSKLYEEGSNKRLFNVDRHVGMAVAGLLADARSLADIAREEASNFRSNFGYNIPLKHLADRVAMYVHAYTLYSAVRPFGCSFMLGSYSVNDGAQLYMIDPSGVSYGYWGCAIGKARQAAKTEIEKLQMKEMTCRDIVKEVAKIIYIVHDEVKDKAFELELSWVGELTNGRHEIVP
UniProt P38936, whole entry: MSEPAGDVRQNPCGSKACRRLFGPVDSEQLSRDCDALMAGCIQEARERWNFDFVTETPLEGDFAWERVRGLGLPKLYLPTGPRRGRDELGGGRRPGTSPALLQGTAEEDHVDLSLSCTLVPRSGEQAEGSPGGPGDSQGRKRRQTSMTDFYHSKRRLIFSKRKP
UniProt P01100, whole entry: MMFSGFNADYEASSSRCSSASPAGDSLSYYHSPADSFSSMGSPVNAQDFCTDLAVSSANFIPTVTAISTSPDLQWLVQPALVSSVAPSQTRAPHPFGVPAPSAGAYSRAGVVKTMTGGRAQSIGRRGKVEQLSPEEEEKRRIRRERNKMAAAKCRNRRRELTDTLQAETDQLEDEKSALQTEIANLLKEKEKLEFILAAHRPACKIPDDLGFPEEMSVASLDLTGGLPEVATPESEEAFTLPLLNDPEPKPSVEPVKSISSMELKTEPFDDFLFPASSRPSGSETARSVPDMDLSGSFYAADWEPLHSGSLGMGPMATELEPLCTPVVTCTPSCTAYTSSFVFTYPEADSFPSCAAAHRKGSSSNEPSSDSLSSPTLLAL

Legend:
HA PSMA5 FPC (PSMA5 wt) = HA PSMA5 FPC (PSMA5 wt) (UniProt P28066); experiment: co-IP
GST-PSMA3-Ct187-255 = GST-PSMA3-Ct187-255 (UniProt P25788); experiment: pull-down
GST-PSMA5-Ct188-241 = GST-PSMA5-Ct188-241 (UniProt P28066); experiment: pull-down
HA PSMA3 FPC [1] = biological target: HA PSMA3 FPC (UniProt P25788); experiment: split reporter
[2] = biological target: chimeric PSMA3 Ct-Δ26 (FPC fusion) (UniProt P25788); experiment: split reporter
HA PSMA3 FPC [3] = biological target: HA PSMA3 FPC (UniProt P25788); experiment: co-sedimentation + split reporter

Row | binding (HA PSMA5 FPC (PSMA5 wt)) | binding (GST-PSMA3-Ct187-255) | binding (GST-PSMA5-Ct188-241) | binding (HA PSMA3 FPC [1]) | binding [2] | binding (HA PSMA3 FPC [3]) | Substance
1 | no binding | binds | no binding |  |  |  | 6xmyc p21 (from UniProt P38936 1-164)
2 |  |  |  | binds | binds | binds | 6xmyc p21 FPN (from UniProt P38936 1-164)
3 |  | binds | no binding |  |  |  | c-Fos (endogenous) (from UniProt P01100 1-380)
4 |  | binds | no binding |  |  |  | p53 (endogenous) (from UniProt P04637 1-393)
